# Reference: the supplement of paper PMC8728848
# The other results are listed elsewhere or left out.
# B1: Clec39 (Caenorhabditis elegans) (protein)
# chain: MTSFYDNSSSSSKPVPLKTSRAQKIQILIFDNWKLILYGAISTLILVLAIMFSTLFFALPAANCDENSEPTKYYTTNAEITTTITTTNQKTTSTASSHLTTISSSATQIYSESSSSSTSQSTFTQSPPEISTTTIAPSDFSCQHGFTLVNNKCWKLVTSNQARPDADKICNGYGGATLFSIKSEQDNRAMIHFVKGQDIDFLWSGLLCSAGEPISCIWDIENGSTANYSNFADGFPNIVYGNCVYFITSGDEAGQWGNEQCGQVMNFVCELPATFQGKDGCKNNYEKSCYLRFDLNLTVPQAQNFCLEKCANLVSIHSANEVRFIMTIYDFIGEILIGALAPAQDFIYWLDGTPANYNNLKFFYNSTCVHMTVAPGMQNVGKWFTRFCTETGKFLCKRSIKNSCT
# Experiments:
# Assay in all cases: glycan array binding signal (z-score within array); higher = stronger binding
# Conditions in all cases: glycan notation: IUPAC condensed, linker removed
# [1] = target: Neu5Ac(a2-6)Gal(b1-4)GlcNAc(b1-2)Man(a1-3)[Neu5Ac(a2-3)Gal(b1-4)GlcNAc(b1-2)Man(a1-6)]Man(b1-4)GlcNAc(b1-4)GlcNAc
# Summary of the method: (§1)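 Arrays were curated from the Consortium for Functional Glycomics database, 3228 in total, and kept only where the protein sequence was available. Binding is expressed as a within-array Z-score. This score was averaged across arrays of the same protein sequence at different concentrations or buffers and across linkers, and negative values can be read as non-binding.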
# [2] = target: Neu5Ac(a2-6)Gal(b1-4)GlcNAc(b1-2)Man(a1-3)[Neu5Ac(a2-6)Gal(b1-4)GlcNAc(b1-2)Man(a1-6)]Man(b1-4)GlcNAc(b1-4)GlcNAc
# Summary of the method: as §1
# [3] = target: Neu5Ac(a2-6)Gal(b1-4)GlcNAc(b1-2)Man(a1-3)[Neu5Ac(a2-6)Gal(b1-4)GlcNAc(b1-2)Man(a1-6)]Man(b1-4)GlcNAc(b1-4)[Fuc(a1-6)]GlcNAc
# Summary of the method: as §1
# [4] = target: Neu5Ac(a2-6)Gal(b1-4)GlcNAc(b1-2)Man(a1-6)Man(b1-4)GlcNAc(b1-4)GlcNAc
# Summary of the method: as §1
# [5] = target: Neu5Ac(a2-6)Gal(b1-4)GlcNAc(b1-2)Man(a1-6)[Gal(b1-4)GlcNAc(b1-2)Man(a1-3)]Man(b1-4)GlcNAc(b1-4)GlcNAc
# Summary of the method: as §1
# [6] = target: Neu5Ac(a2-6)Gal(b1-4)GlcNAc(b1-2)Man(a1-6)[GlcNAc(b1-2)Man(a1-3)]Man(b1-4)GlcNAc(b1-4)GlcNAc
# Summary of the method: as §1
# [7] = target: Neu5Ac(a2-6)Gal(b1-4)GlcNAc(b1-2)Man(a1-6)[Man(a1-3)]Man(b1-4)GlcNAc(b1-4)GlcNAc
# Summary of the method: as §1
# [8] = target: Neu5Ac(a2-6)Gal(b1-4)GlcNAc(b1-2)[Neu5Ac(a2-6)Gal(b1-4)GlcNAc(b1-4)]Man(a1-3)[GlcNAc(b1-4)][Neu5Ac(a2-6)Gal(b1-4)GlcNAc(b1-2)[Neu5Ac(a2-6)Gal(b1-4)GlcNAc(b1-6)]Man(a1-6)]Man(b1-4)GlcNAc(b1-4)GlcNAc
# Summary of the method: as §1
# [9] = target: Neu5Ac(a2-6)Gal(b1-4)GlcNAc(b1-2)[Neu5Ac(a2-6)Gal(b1-4)GlcNAc(b1-4)]Man(a1-3)[GlcNAc(b1-4)][Neu5Ac(a2-6)Gal(b1-4)GlcNAc(b1-4)Man(a1-6)]Man(b1-4)GlcNAc(b1-4)GlcNAc
# Summary of the method: as §1
# [10] = target: Neu5Ac(a2-6)Gal(b1-4)GlcNAc(b1-2)[Neu5Ac(a2-6)Gal(b1-4)GlcNAc(b1-6)]Man(a1-6)[Neu5Ac(a2-6)Gal(b1-4)GlcNAc(b1-2)Man(a1-3)][GlcNAc(b1-4)]Man(b1-4)GlcNAc(b1-4)GlcNAc
# Summary of the method: as §1
# [11] = target: Neu5Ac(a2-6)Gal(b1-4)GlcNAc(b1-3)Gal(b1-3)GlcNAc
# Summary of the method: as §1
# [12] = target: Neu5Ac(a2-6)Gal(b1-4)GlcNAc(b1-3)Gal(b1-4)GlcNAc
# Summary of the method: as §1
# [13] = target: Neu5Ac(a2-6)Gal(b1-4)GlcNAc(b1-3)Gal(b1-4)GlcNAc(b1-2)Man(a1-3)[Neu5Ac(a2-6)Gal(b1-4)GlcNAc(b1-3)Gal(b1-4)GlcNAc(b1-2)Man(a1-6)]GalNAc
# Summary of the method: as §1
# [14] = target: Neu5Ac(a2-6)Gal(b1-4)GlcNAc(b1-3)Gal(b1-4)GlcNAc(b1-3)Gal(b1-4)GlcNAc
# Summary of the method: as §1
# [15] = target: Neu5Ac(a2-6)Gal(b1-4)GlcNAc(b1-3)Gal(b1-4)GlcNAc(b1-3)Gal(b1-4)GlcNAc(b1-2)Man(a1-3)[Neu5Ac(a2-6)Gal(b1-4)GlcNAc(b1-3)Gal(b1-4)GlcNAc(b1-3)Gal(b1-4)GlcNAc(b1-2)Man(a1-6)]GalNAc
# Summary of the method: as §1
# [16] = target: Neu5Ac(a2-6)Gal(b1-4)GlcNAc(b1-3)Gal(b1-4)GlcNAc(b1-3)GalNAc
# Summary of the method: as §1
# [17] = target: Neu5Ac(a2-6)Gal(b1-4)GlcNAc(b1-3)Gal(b1-4)GlcNAc(b1-3)[Neu5Ac(a2-6)Gal(b1-4)GlcNAc(b1-3)Gal(b1-4)GlcNAc(b1-6)]GalNAc
# Summary of the method: as §1
# [18] = target: Neu5Ac(a2-6)Gal(b1-4)GlcNAc(b1-3)Gal(b1-4)GlcNAc(b1-6)[Gal(b1-3)]GalNAc
# Summary of the method: as §1
# [19] = target: Neu5Ac(a2-6)Gal(b1-4)GlcNAc(b1-3)Gal(b1-4)[Fuc(a1-3)]GlcNAc(b1-3)Gal(b1-4)[Fuc(a1-3)]GlcNAc
# Summary of the method: as §1
# [20] = target: Neu5Ac(a2-6)Gal(b1-4)GlcNAc(b1-3)GalNAc
# Summary of the method: as §1
# [21] = target: Neu5Ac(a2-6)Gal(b1-4)GlcNAc(b1-3)[Neu5Ac(a2-6)Gal(b1-4)GlcNAc(b1-6)]GalNAc
# Summary of the method: as §1
# [22] = target: Neu5Ac(a2-6)Gal(b1-4)GlcNAc(b1-6)GalNAc
# Summary of the method: as §1
# [23] = target: Neu5Ac(a2-6)Gal(b1-4)GlcNAc(b1-6)[Gal(b1-3)GlcNAc(b1-3)]Gal(b1-4)Glc
# Summary of the method: as §1
# [24] = target: Neu5Ac(a2-6)Gal(b1-4)GlcNAc(b1-6)[Gal(b1-3)]GalNAc
# Summary of the method: as §1
# [25] = target: Neu5Ac(a2-6)Gal(b1-4)GlcNAc6S
# Summary of the method: as §1
# Neu5Ac(a2-6)GalNAc = target: Neu5Ac(a2-6)GalNAc
# Summary of the method: as §1
# [26] = target: Neu5Ac(a2-6)GalNAc(b1-4)GlcNAc
# Summary of the method: as §1
# [27] = target: Neu5Ac(a2-6)GalNAc(b1-4)GlcNAc6S
# Summary of the method: as §1
# [28] = target: Neu5Ac(a2-6)GlcNAc(b1-4)GlcNAc
# Summary of the method: as §1
# [29] = target: Neu5Ac(a2-6)GlcNAc(b1-4)GlcNAc(b1-4)GlcNAc
# Summary of the method: as §1
binder,measurement,setting,value
B1,glycan array binding signal (z-score),[1],-0.493
same,glycan array binding signal (z-score),[2],-0.628
same,glycan array binding signal (z-score),[3],0.847
same,glycan array binding signal (z-score),[4],0.204
same,glycan array binding signal (z-score),[5],-1.02
same,glycan array binding signal (z-score),[6],0.362
same,glycan array binding signal (z-score),[7],0.487
same,glycan array binding signal (z-score),[8],-0.876
same,glycan array binding signal (z-score),[9],0.149
same,glycan array binding signal (z-score),[10],-0.547
same,glycan array binding signal (z-score),[11],-0.794
same,glycan array binding signal (z-score),[12],-1.31
same,glycan array binding signal (z-score),[13],0.435
same,glycan array binding signal (z-score),[14],-0.913
same,glycan array binding signal (z-score),[15],-0.432
same,glycan array binding signal (z-score),[16],-2.01
same,glycan array binding signal (z-score),[17],-0.058
same,glycan array binding signal (z-score),[18],1.14
same,glycan array binding signal (z-score),[19],-0.95
same,glycan array binding signal (z-score),[20],-0.868
same,glycan array binding signal (z-score),[21],-0.29
same,glycan array binding signal (z-score),[22],-0.055
same,glycan array binding signal (z-score),[23],0.004
same,glycan array binding signal (z-score),[24],0.359
same,glycan array binding signal (z-score),[25],-0.23
same,glycan array binding signal (z-score),Neu5Ac(a2-6)GalNAc,-0.654
same,glycan array binding signal (z-score),[26],-0.184
same,glycan array binding signal (z-score),[27],-0.11
same,glycan array binding signal (z-score),[28],0.106
same,glycan array binding signal (z-score),[29],-0.082

# Already shown: an excerpt of the list.
binder,measurement,setting,value
B1,glycan array binding signal (z-score),[18],1.14
same,glycan array binding signal (z-score),[19],-0.95
